{"source": "PubChem BioAssay AID602196 (INSERM, 2012)", "purpose": "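Modifiers of cisplatin sensitivity in A549 cells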", "cell system": "human A549 lung cancer cells", "knock-down reagent": "siRNA pair against human genes", "timing": "48 h transfection before cisplatin; time from cisplatin to read-out not stated", "conditions": "cisplatin at a dose killing half of control-siRNA cells; exact dose and duration not given", "detection": "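Shift in cisplatin death relative to control siRNA, from -50 (all cells die) to +50 (no cells die); siRNAs harmful on their own scored 0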", "reading the numbers": "two-siRNA summed score (-2 to +2): higher = both siRNAs protect from cisplatin killing; -2 means both sensitise", "hit rule": "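siRNAs harmful alone (LDH or WST-1) get 0; others get +1 for less and -1 for more cisplatin killing; genes are active when the two siRNAs give the same sign, summing to ±2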", "calls": "active = both siRNAs shift cisplatin killing the same way; inactive = no consistent shift, or siRNA harmful alone", "note": "The deposit covers about 23,000 reagents; this is a random part of them. 455 of them (2%) count as active. 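Active includes both protection and sensitisation; some change values fall well beyond the stated -50 to +50 range.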 Further read-outs or replicates are left out here. The record does not give: the amount of reagent."}
{"Gene": "TNNT3 (troponin T3, fast skeletal type)", "two-siRNA summed score (-2 to +2)": 0, "activity call": "inactive"}
{"Gene": "UMODL1 (uromodulin like 1)", "two-siRNA summed score (-2 to +2)": 0, "activity call": "inactive"}
{"Gene": "KCTD2 (potassium channel tetramerization domain containing 2)", "two-siRNA summed score (-2 to +2)": 0, "activity call": "inactive"}
{"Gene": "LINC01684 (long independently transcribed non-coding RNA 1684)", "two-siRNA summed score (-2 to +2)": 0, "activity call": "inactive"}
{"Gene": "KRTAP13-1 (keratin associated protein 13-1)", "two-siRNA summed score (-2 to +2)": 0, "activity call": "inactive"}
{"Gene": "FAR1 (fatty acyl-CoA reductase 1)", "two-siRNA summed score (-2 to +2)": 0, "activity call": "inactive"}
{"Gene": "ZNF295-AS1 (ZNF295 antisense RNA 1)", "two-siRNA summed score (-2 to +2)": 0, "activity call": "inactive"}
{"Gene": "ERP29 (endoplasmic reticulum protein 29)", "two-siRNA summed score (-2 to +2)": 0, "activity call": "inactive"}
{"Gene": "ERCC6L2 (ERCC excision repair 6 like 2)", "two-siRNA summed score (-2 to +2)": 0, "activity call": "inactive"}
{"Gene": "FBN2 (fibrillin 2)", "two-siRNA summed score (-2 to +2)": -1, "activity call": "inactive"}
{"Gene": "TCEAL4 (transcription elongation factor A like 4)", "two-siRNA summed score (-2 to +2)": 0, "activity call": "inactive"}
{"Gene": "TMC5 (transmembrane channel like 5)", "two-siRNA summed score (-2 to +2)": -1, "activity call": "inactive"}
{"Gene": "CSNK2A1 (casein kinase 2 alpha 1)", "two-siRNA summed score (-2 to +2)": 0, "activity call": "inactive"}
{"Gene": "ZNF48 (zinc finger protein 48)", "two-siRNA summed score (-2 to +2)": 0, "activity call": "inactive"}
{"Gene": "LOC120872", "two-siRNA summed score (-2 to +2)": -1, "activity call": "inactive"}
{"Gene": "OR51B2 (olfactory receptor family 51 subfamily B member 2)", "two-siRNA summed score (-2 to +2)": -1, "activity call": "inactive"}
{"Gene": "GPR6 (G protein-coupled receptor 6)", "two-siRNA summed score (-2 to +2)": 0, "activity call": "inactive"}
{"Gene": "SH3TC1 (SH3 domain and tetratricopeptide repeats 1)", "two-siRNA summed score (-2 to +2)": -1, "activity call": "inactive"}
{"Gene": "METTL21A (methyltransferase 21A, HSPA lysine)", "two-siRNA summed score (-2 to +2)": 0, "activity call": "inactive"}
{"Gene": "GRIPAP1 (GRIP1 associated protein 1)", "two-siRNA summed score (-2 to +2)": -1, "activity call": "inactive"}

In a second layout: results already given.
Gene,two-siRNA summed score (-2 to +2),activity call
FAR1 (fatty acyl-CoA reductase 1),0,inactive
ZNF295-AS1 (ZNF295 antisense RNA 1),0,inactive

More records follow.
{"Gene": "OR52K2 (olfactory receptor family 52 subfamily K member 2)", "two-siRNA summed score (-2 to +2)": 1, "activity call": "inactive"}
{"Gene": "LOC389394", "two-siRNA summed score (-2 to +2)": 0, "activity call": "inactive"}
{"Gene": "KHSRP (KH-type splicing regulatory protein)", "two-siRNA summed score (-2 to +2)": -2, "activity call": "active"}
{"Gene": "PKN3 (protein kinase N3)", "two-siRNA summed score (-2 to +2)": 1, "activity call": "inactive"}
{"Gene": "C4A (complement C4A (Chido/Rodgers blood group))", "two-siRNA summed score (-2 to +2)": 0, "activity call": "inactive"}
{"Gene": "PRPSAP1 (phosphoribosyl pyrophosphate synthetase associated protein 1)", "two-siRNA summed score (-2 to +2)": 0, "activity call": "inactive"}
{"Gene": "RLN1 (relaxin 1)", "two-siRNA summed score (-2 to +2)": 1, "activity call": "inactive"}
{"Gene": "TRIM16 (tripartite motif containing 16)", "two-siRNA summed score (-2 to +2)": -1, "activity call": "inactive"}
{"Gene": "NIPA2 (NIPA magnesium transporter 2)", "two-siRNA summed score (-2 to +2)": 0, "activity call": "inactive"}
{"Gene": "LOC392222", "two-siRNA summed score (-2 to +2)": 1, "activity call": "inactive"}
{"Gene": "SEC11C (SEC11 homolog C, signal peptidase complex subunit)", "two-siRNA summed score (-2 to +2)": 0, "activity call": "inactive"}
